For five molecules, binding results are on record in article PMC3293916.

The chains behind the UniProt entries cited, without tags or fusion partners.
UniProt Q10428: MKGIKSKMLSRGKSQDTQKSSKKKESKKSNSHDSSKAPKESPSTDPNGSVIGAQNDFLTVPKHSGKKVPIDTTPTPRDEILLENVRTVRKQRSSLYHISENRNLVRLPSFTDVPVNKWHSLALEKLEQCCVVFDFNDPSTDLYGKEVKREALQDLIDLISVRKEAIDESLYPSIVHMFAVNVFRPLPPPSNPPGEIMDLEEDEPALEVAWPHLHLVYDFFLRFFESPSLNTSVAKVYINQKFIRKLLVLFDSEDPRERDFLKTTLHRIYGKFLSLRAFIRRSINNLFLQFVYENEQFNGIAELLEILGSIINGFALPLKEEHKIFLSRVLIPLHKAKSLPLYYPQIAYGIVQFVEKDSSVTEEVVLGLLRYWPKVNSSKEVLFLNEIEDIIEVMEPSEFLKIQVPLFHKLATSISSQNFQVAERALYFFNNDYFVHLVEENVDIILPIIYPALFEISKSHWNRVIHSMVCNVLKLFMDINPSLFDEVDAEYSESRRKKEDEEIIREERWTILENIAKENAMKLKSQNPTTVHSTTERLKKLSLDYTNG
UniProt P23635: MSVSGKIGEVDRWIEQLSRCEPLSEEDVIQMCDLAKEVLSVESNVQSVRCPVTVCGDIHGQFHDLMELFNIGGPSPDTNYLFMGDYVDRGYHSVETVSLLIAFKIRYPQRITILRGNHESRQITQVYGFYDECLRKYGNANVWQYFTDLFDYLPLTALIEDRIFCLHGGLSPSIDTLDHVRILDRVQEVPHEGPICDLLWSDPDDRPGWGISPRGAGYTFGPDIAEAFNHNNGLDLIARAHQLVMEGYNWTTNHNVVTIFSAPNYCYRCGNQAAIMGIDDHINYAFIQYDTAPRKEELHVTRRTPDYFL
UniProt P23636: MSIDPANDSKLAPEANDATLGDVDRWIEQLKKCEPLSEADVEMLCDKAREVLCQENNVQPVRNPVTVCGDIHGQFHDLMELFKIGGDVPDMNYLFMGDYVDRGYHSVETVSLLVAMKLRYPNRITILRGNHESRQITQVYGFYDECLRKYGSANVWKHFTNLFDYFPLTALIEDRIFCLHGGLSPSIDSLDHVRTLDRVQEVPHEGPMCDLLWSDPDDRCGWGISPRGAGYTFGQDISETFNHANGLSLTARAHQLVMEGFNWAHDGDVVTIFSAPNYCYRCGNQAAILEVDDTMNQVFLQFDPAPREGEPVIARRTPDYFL

Results are given in words; binding and its absence hold for the method and conditions named. Binding seen in cells or lysates may run through a third protein. These calls come from enrichment with a bait or labelling near it, and not all partners need be listed. Sequences can lack the tags named with a protein.

The test deals with T1, Paa1-PK, structural (A) subunit of the PP2A complex tagged with the PK epitope (S. pombe) (UniProt Q9UT08).
T1 sequence: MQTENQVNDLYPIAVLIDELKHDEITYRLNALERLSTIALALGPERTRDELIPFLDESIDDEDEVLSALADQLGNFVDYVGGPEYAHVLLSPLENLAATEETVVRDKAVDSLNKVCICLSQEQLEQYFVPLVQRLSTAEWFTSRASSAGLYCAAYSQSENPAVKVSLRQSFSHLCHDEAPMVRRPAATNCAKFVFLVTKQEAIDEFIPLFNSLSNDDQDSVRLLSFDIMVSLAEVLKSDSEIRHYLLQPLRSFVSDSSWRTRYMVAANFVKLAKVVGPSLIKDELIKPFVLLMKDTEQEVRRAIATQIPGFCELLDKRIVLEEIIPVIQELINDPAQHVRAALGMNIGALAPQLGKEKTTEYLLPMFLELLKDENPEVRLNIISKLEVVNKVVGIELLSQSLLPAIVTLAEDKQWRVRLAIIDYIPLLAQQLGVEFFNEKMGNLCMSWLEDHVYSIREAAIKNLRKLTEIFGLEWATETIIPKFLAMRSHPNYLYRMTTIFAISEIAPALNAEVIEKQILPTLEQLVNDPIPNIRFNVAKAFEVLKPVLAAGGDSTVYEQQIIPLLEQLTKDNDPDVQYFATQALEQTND
In words: affinity purification with mass spectrometry; extracts of exponentially growing Paa1-PK cells (untagged wild type as control) precipitated with mouse anti-PK antibody cross-linked to Protein A Dynabeads, 4°C, 60 min, IP buffer (25 mM Tris pH 7.5, 0.1% Nonidet P-40, 150 mM NaCl); SDS-PAGE, silver stain, bands excised and identified by tandem mass spectrometry; repeated four times.

On to “Par1, regulatory B′ subunit of PP2A (from UniProt Q10428 1-548)”, for which the binding entry was “binds”.

For “Ppa1, catalytic subunit of PP2A (from UniProt P23635 1-309) (enzyme)”, the binding result is “binds”.

With “Ppa2, catalytic subunit of PP2A (from UniProt P23636 1-322) (enzyme)”, the binding result is “binds”.

B1: Pta2 (SPAC1782.05), homologue of the PP2A phosphatase activator (PTPA) (protein, UniProt Q9P7H4 1-352)
chain: MLSREEQNRCFVPVRRILDNEDLKLFKEGDAYKLIDSFICDLDEAVKDKPISASIPQSSSIEHVLNILDRVGEIKQENPAIDNMGSRFGNPAFQSFYDQVYIETPKLHQVFGIEHNAAMEAGRYFYESFGNRKRIDYGSGHELYFMSWLLILKQLGIFTKNDYPALVVRVFVKYVELMRSLQIFYTLEPAGSHGVWGLDDFHFLPFLFGAAQLVNHKYLRPKHVRDPEILEMCRADYMYLGYVYFLNKLKPSVSLRFHSPMIDDISAVKTWSKVNEGMIKMYRAEVLGKLPIMQHYLFGHLIPASPGMSPAPQDGDDSEVTHVHSHYADCCGIKIPSAISAAKNNGSRIPFD
As for B1, the binding result was “binds”.

B2: SPBP8B7.08c, homologue of the leucine carboxyl methyltransferase Ppm1 (enzyme, UniProt O94257 1-310)
chain: MDITETDLDALKCRSSATKSGYIHDPFIKFFSPSRNSHKPPIINRGTYVRTWSIDHILQKFIESFDGKKQIISLGAGTDTRVFRYISEYGPENLKFIEFDFYPNCIRKIRTIEKHEALKQNIGDYVVDISGGSLVSGSLDIYSYDIREIVHKGFPGFVDFSLPTIVLSECCLCYLEPEEASSLCRWFQNMFATSGIVVYEPIQGMDNFGKMMKANLSARGVILKTLDCYETTEQQRMRFLDYGYSEVIAEDFLTIEETWIPIEEKKRTMSIEMLDELEEWQLLAKHYCLTFAATENLWNQIILQLPHLKT
In the case of B2, the binding entry is reported as “binds”.
